Among the data in PubChem BioAssay AID328 (DTP/NCI, 2004) are T/C and survivor count values, retold here.

The list shows only some results of the screen, not a fair sample: it is rich in T/C values a quarter to a half above the control, in often repeated tests (any T/C) and in doses without a T/C. Further doses and runs are listed elsewhere. T/C is the treated group as % of the vehicle group. Some entries give survivors of the animals treated and no T/C: the source holds a T/C of zero for them, seemingly a mark for toxic or unscored doses. Some survivor counts are full or nearly so, which does not show that the dose was tolerated: survival well below the control is almost never listed, so the zero probably covers shortened survival too. Counts of survivors are from the toxicity check (mostly the fifth day) where no day follows; animals may have died later. Schedules are NCI's codes, taken here to give the interval after Q, in days (D) or hours (H), and the number of doses after X. Some entries were tested several times; the results are listed from low to high. For survival time, this PubChem deposit counts one and a half times the control or more as active, and values a quarter to a half above the control carry no call in these data; other NCI protocols may use other cut-offs.

In the assay the test system is BDF1 mice, P388 leukemia ip, median survival T/C. The experiment in a line: NCI In Vivo Anticancer Drug Screen. Data for tumor model P388 Leukemia (intraperitoneal) in B6D2F1 (BDF1) mice. Conditions: T/C endpoint: median survival time, higher T/C = longer survival. Put shortly: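 Transplantable tumour in mice; compound vs vehicle dosing; survival scored; ratio of treated to control reported.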

Where [1] appears, read: dose: 200.0 mg/kg/injection, schedule: Q01DX009 (ip), vehicle: saline with Tween-80.
Setting [2] is: dose: 12.5 mg/kg/injection, schedule: Q01DX009 (ip), vehicle: saline with Tween-80.
Setting [3] is: dose: 100.0 mg/kg/injection, schedule: Q01DX009 (ip), vehicle: saline with Tween-80.
The mark [4] stands for this setting: dose: 400.0 mg/kg/injection, schedule: Q01DX009 (ip), vehicle: saline with Tween-80.
Where [5] appears, read: dose: 200.0 mg/kg/injection, schedule: Q01DX009 (ip), vehicle: saline.
The mark [6] stands for this setting: dose: 400.0 mg/kg/injection, schedule: Q01DX009 (ip), vehicle: saline.
[7] abbreviates: dose: 400.0 mg/kg/injection, schedule: Q04DX003 (ip), vehicle: saline.
[8] abbreviates: dose: 100.0 mg/kg/injection, schedule: Q04DX003 (ip), vehicle: saline sonified.
[9] abbreviates: dose: 100.0 mg/kg/injection, schedule: Q01DX009 (ip), vehicle: saline.

With `C=C(C)C12OC3(c4ccccc4)OC1C1C4OC4(CO)C(O)C4(O)C(=O)C(C)=CC4C1(O3)C(C)C2OC(=O)/C=C/C=C/c1ccccc1` (stereo not given), the T/C runs as follows: (dose: 0.05 mg/kg/injection, schedule: Q01DX009 (ip), vehicle: saline + alcohol) 147 % of control; (dose: 0.1 mg/kg/injection, schedule: Q01DX009 (ip), vehicle: saline + alcohol) 148 % of control; (dose: 0.25 mg/kg/injection, schedule: Q01DX009 (ip), vehicle: saline + alcohol) 141 % of control; (dose: 12.5 micrograms/kg/injection, schedule: Q01DX009 (ip), vehicle: saline + alcohol) 128 % of control; (dose: 25.0 micrograms/kg/injection, schedule: Q01DX009 (ip), vehicle: saline + alcohol) 127 % of control. Further, the survivor count is on record as 6 of 6 (dose: 0.2 mg/kg/injection, schedule: Q01DX009 (ip), vehicle: saline + alcohol); 5 of 6 (dose: 0.4 mg/kg/injection, schedule: Q01DX009 (ip), vehicle: saline + alcohol); 5 of 6 (dose: 1.0 mg/kg/injection, schedule: Q01DX009 (ip), vehicle: saline + alcohol); 3 of 6 (dose: 2.0 mg/kg/injection, schedule: Q01DX009 (ip), vehicle: saline + alcohol); 5 of 6 (dose: 50.0 micrograms/kg/injection, schedule: Q01DX009 (ip), vehicle: saline + alcohol); 6 of 6 (dose: 100.0 micrograms/kg/injection, schedule: Q01DX009 (ip), vehicle: gum acacia). Besides, the survivor count by setting is: (dose: 100.0 micrograms/kg/injection, schedule: Q01DX009 (ip), vehicle: saline + alcohol) 5 of 6 and 6 of 6; (dose: 200.0 micrograms/kg/injection, schedule: Q01DX009 (ip), vehicle: gum acacia) 2 of 6; (dose: 200.0 micrograms/kg/injection, schedule: Q01DX009 (ip), vehicle: saline + alcohol) 1 of 6; (dose: 200.0 micrograms/kg/injection, schedule: Q01DX009 (ip), vehicle: saline with Tween-80) 0 of 6; (dose: 400.0 micrograms/kg/injection, schedule: Q01DX009 (ip), vehicle: gum acacia) 1 of 6; (dose: 400.0 micrograms/kg/injection, schedule: Q01DX009 (ip), vehicle: saline with Tween-80) 0 of 6. For the same compound, the survivor count by setting is: (dose: 800.0 micrograms/kg/injection, schedule: Q01DX009 (ip), vehicle: gum acacia) 0 of 6; (dose: 800.0 micrograms/kg/injection, schedule: Q01DX009 (ip), vehicle: saline with Tween-80) 0 of 6.

Take `CCCN(CCC)CC(O)c1cc2cc(C(F)(F)F)cc(C(F)(F)F)c2c2ccccc12` (stereo not given): the survivor count under setting [1] is recorded as 5 of 6.

Regarding `c1ccc(OCC2CO2)c(OCC2CO2)c1` (stereo not given), the T/C (dose: 30.0 mg/kg/injection, schedule: Q01DX005 (ip), vehicle: saline with Tween-80) was 135 % of control.

In the case of `CCC(C)(CC(=O)O)CC(=O)O`, the survivor count under setting [2] is 6 of 6, the survivor count under setting [3] is on record as 6 of 6, the survivor count under setting [1] was 6 of 6 and the survivor count under setting [4] is recorded as 6 of 6.

`NC(Cc1c[nH]c2ccc(N(CCCl)CCCl)cc12)C(=O)O` (stereo not given): the survivor count was 6 of 6 (dose: 2.0 mg/kg/injection, schedule: Q01DX010 (ip), vehicle: saline) and 6 of 6 (dose: 4.0 mg/kg/injection, schedule: Q01DX010 (ip), vehicle: saline).

Turning to `C=C(C)CNc1ccccc1`, the survivor count reads like this: under setting [1], 6 of 6; under setting [4], 0 of 6.

`N#CCC(=O)Cc1ccccc1[N+](=O)[O-]`: the survivor count by setting is: (dose: 100.0 mg/kg/injection, schedule: Q01DX001 (ip), vehicle: saline sonified) 6 of 6; (dose: 200.0 mg/kg/injection, schedule: Q01DX001 (ip), vehicle: saline sonified) 6 of 6.

For the compound `NC1CONC1=O` (stereo not given), the survivor count under setting [5] is reported as 8 of 8.

With `Nc1ccn(CC(=O)c2ccc(Cl)s2)c(=O)n1`, the survivor count (dose: 400.0 mg/kg/injection, schedule: Q01DX009 (ip), vehicle: water) is given as 4 of 6.

With `CCCCc1c(C(=O)OCC)oc(C(=O)OCC)c(CCCC)c1=O`, under “dose: 200.0 mg/kg/injection, schedule: Q04DX003 (ip), vehicle: Klucel (hydroxypropylcellulose) (HPC)”, the T/C was 129 % of control.

`C[C@@]1(O)CCCC[C@H]1O`: the survivor count under setting [6] is on record as 3 of 6.

Regarding `CN(C)CCN1C(=O)c2cccc3cc([N+](=O)[O-])cc(c23)C1=O`, under setting [2], the survivor count was 4 of 6.

Regarding `C[N+](C)(C)c1ncnc2c1ncn2C1CCCO1` (stereo not given), the survivor count by setting is: under setting [5], 2 of 6; under setting [7], 1 of 6.

`C[n+]1c(/C=N/NC(N)=S)ccc2ccccc21`: the T/C under setting [2] was 141 % of control.

For `O=NN(CCCl)C(=O)Nc1ccc(CCO)cc1`, the T/C reads like this: (dose: 0.31 mg/kg/injection, schedule: Q01DX009 (ip), vehicle: Klucel (hydroxypropylcellulose) (HPC)) 127 % of control; (dose: 0.47 mg/kg/injection, schedule: Q01DX009 (ip), vehicle: Klucel (hydroxypropylcellulose) (HPC)) 140 % of control; (dose: 0.72 mg/kg/injection, schedule: Q01DX009 (ip), vehicle: Klucel (hydroxypropylcellulose) (HPC)) 131 % of control; (dose: 1.0 mg/kg/injection, schedule: Q04DX003 (ip), vehicle: saline) 130 % of control. The survivor count reads like this: (dose: 25.0 mg/kg/injection, schedule: Q01DX009 (ip), vehicle: saline) 6 of 6; (dose: 25.0 mg/kg/injection, schedule: Q04DX003 (ip), vehicle: saline + alcohol) 6 of 6; (dose: 50.0 mg/kg/injection, schedule: Q04DX003 (ip), vehicle: saline sonified) 4 of 6; under setting [8], 4 of 6.

With `N#CCCNCCC#N`, the survivor count under setting [7] is on record as 6 of 6.

Consider `c1cc2c3c(c1)ncn3CCC2`, for which the survivor count is 6 of 6 (dose: 100.0 mg/kg/injection, schedule: Q04DX003 (ip), vehicle: other) and 4 of 6 (dose: 200.0 mg/kg/injection, schedule: Q04DX003 (ip), vehicle: other).

In the case of `COc1ccc(/C=C/c2ccc3ccccc3[n+]2C)cc1OC`, the T/C (dose: 9.37 mg/kg/injection, schedule: Q01DX009 (ip), vehicle: saline) was 145 % of control.

Regarding `Cn1c(=O)c2ncnnc2n(C)c1=O`, the survivor count (dose: 25.0 mg/kg/injection, schedule: Q01DX009 (ip), vehicle: Klucel (hydroxypropylcellulose) (HPC)) was 0 of 6.

For `CC1=CCCC2(CCC3(C)CC32)C1(C)C` (stereo not given), the T/C under setting [5] is 130 % of control.

In the case of `Cn1cnc([N+](=O)[O-])c1Sc1ncnc2nc[nH]c12`, the T/C was 127 % of control under setting [9]; 127 and 135 % of control under setting [8]; 131 % of control (dose: 200.0 mg/kg/injection, schedule: Q04DX003 (ip), vehicle: saline sonified). Also, the survivor count under setting [6] was 4 of 6.

As for `C/C=C/C(=O)OCC1CC[N+](C)([O-])C1` (stereo not given), the survivor count reads like this: under setting [9], 4 of 4; under setting [6], 4 of 4.

For the compound `Cc1cc2nc(C)c(=O)[nH]c2cc1C`, where the note is “dose: 400.0 mg/kg/injection, schedule: Q01DX009 (ip), vehicle: Klucel (hydroxypropylcellulose) (HPC)”, the survivor count was 5 of 6.

Regarding `Fc1ccc(NC(=S)SCc2ccc3c(c2)OCO3)cc1F`, the T/C by setting is: (dose: 50.0 mg/kg/injection, schedule: Q01DX009 (ip), vehicle: saline with Tween-80) 126 % of control; under setting [3], 135 % of control; (dose: 200.0 mg/kg/injection, schedule: Q01DX009 (ip), vehicle: saline + alcohol) 125 % of control. In addition, the survivor count reads like this: under setting [1], 0 of 6; under setting [4], 0 of 6 and 2 of 6.
